Laboratory results reported in PubChem BioAssay AID493014 (National Center for Advancing Translational Sciences (NCATS), 2011).
Some of the results follow. Further columns of the screen follow, without active or inactive calls. Most of these compounds were active or inconclusive in the main read-out, so they are no random draw. Potencies come from curve fits of mixed quality, noted in brackets.

Assay: qHTS Assay to Find Inhibitors of Chronic Active B-Cell Receptor Signaling
Conditions: ABC-DLBCL IkBa-CBG/CBR reporter, luminescence ratio (green luciferase fused to IkBa over red control in TMD8 lymphoma cells), 4 h
Procedure, shortened: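 Doxycycline induced both beetle luciferases in TMD8 lymphoma cells; IKK-driven degradation limits the IkappaBalpha-fused green signal, while red luminescence normalises for cell number and nonspecific effects. Compounds tested up to 46 uM, 4 hrs.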

[1] = measured here: CBR red luminescence, cell number
[2] = measured here: IkBa-CBG green luminescence

Compound	AC50 [1]	AC50 [2]
O=C(Nc1ccccc1)C1CC(=O)N(Cc2ccccc2)C1 (centres undefined)	35.5 µM [falling, single point]	
O=C(CN1CCOCC1)N1N=C(c2cccs2)CC1c1cccs1 (centres undefined)	35.5 µM [rising, single point]	
O=C(Nc1ccccc1)C(=O)c1cn(CC(=O)N2CCCCC2)c2ccccc12	0.461 µM [falling, full curve]	
COc1ccc(S(=O)(=O)N(CC(=O)Nc2cccnc2)c2ccccc2OC)cc1	2.59 µM [falling, partial curve, poor fit]	
COc1ccc(NC(=O)c2ccc(-n3nc(C)cc3C)cc2)cc1OC	11.2 µM [falling, partial curve, poor fit]	
CC(=O)NC(CC(=O)N(Cc1ccccc1)c1ccc(C)cc1)c1ccccc1 (centres undefined)	35.5 µM [falling, single point]	
CCCCNC(=O)C(C1CCCCC1)N(CCN(C)C)C(=O)CCCN1C(=O)NC(c2ccc(-c3ccccc3)cc2)C(C(=O)OCc2ccccc2)=C1C (centres undefined)	16.4 µM [falling, single point]	
CN(C)CCN(C)Cc1ccccc1Sc1cccc2ccccc12	18.4 µM [falling, single point]	
CCc1ccc(NC(=O)C2CCCN(S(=O)(=O)c3cccnc3)C2)cc1 (centres undefined)	20 µM [falling, single point]	
CCc1nc(NCCCN2CCOCC2)c2oc3ccccc3c2n1	7.31 µM [falling, partial curve, poor fit]	
CC1CC1C(=O)OCC(=O)Nc1cccc(F)c1 (centres undefined)	1.84 µM [rising, partial curve, poor fit]	
COc1ccc(NC(=S)Nc2ccccc2)c(OC)c1	25.1 µM [falling, single point]	
O=C(Nc1ccc2c(c1)OCCO2)c1cc(-n2cnnc2)ccc1Cl	8.2 µM [falling, partial curve, poor fit]	
Cn1c(=O)c2c(ncn2CC(=O)Nc2cccc(S(=O)(=O)Nc3ccccc3F)c2)n(C)c1=O	12.6 µM [falling, partial curve]	
CN(C)c1nc(-c2ccccc2)nc(-c2ccc(Cl)cc2)c1C#N	3.26 µM [falling, partial curve, poor fit]	
O=C(CNC(=O)c1ccccc1)c1ccccc1	9.2 µM [falling, partial curve]	
CCOc1ccccc1CNS(=O)(=O)c1cc(-c2cc(C)no2)ccc1C	10 µM [falling, partial curve, poor fit]	
COc1ccc(S(=O)(=O)Nc2cccc(NC(C)=O)c2)cc1	25.9 µM [falling, single point]	
COC(=O)c1c(NC(=O)c2ccc([N+](=O)[O-])o2)sc2c1CCN(C(C)C)C2	35.5 µM [falling, single point]	
Cc1ccc(N2C(=O)SC(Cc3ccccc3)C2=O)cc1 (centres undefined)	0.1 µM [rising, full curve, poor fit]	
CC(C)CCNC(=O)CCCOc1cc(=O)n(C)c2ccccc12	12.6 µM [rising, single point]	

Compound	AC50 [1]	AC50 [2]
O=C(c1ccc2ccccc2c1)C1CCCN(C(=O)c2noc3c2CCCC3)C1 (centres undefined)	28.2 µM [falling, single point]	
CN(C)/C=C/C(=O)c1ccc2noc(-c3cccc(F)c3)c2c1	11.2 µM [falling, partial curve, poor fit]	
CC(/C=N/NC(=O)COc1ccccc1C)=N\NC(=O)COc1ccccc1C	2.82 µM [falling, full curve]	
CCn1c(=O)cc(SCC(=O)N2CCN(C3CCCCC3)CC2)c2ccccc21	7.31 µM [rising, partial curve, poor fit]	
COc1ccc(CCn2c(=O)[nH]c3cc(C(=O)NCCN4CCOCC4)ccc3c2=O)cc1OC	23.1 µM [rising, single point]	
CN(Cc1ccccc1F)c1nc(-c2cccs2)nc2ccccc12	3.66 µM [rising, partial curve]	
Cc1nc(C)c(-c2csc(NCc3ccccc3)n2)s1	20 µM [falling, single point]	
COc1ccc(Cc2nnc(Nc3ccccc3OC)[nH]c2=O)cc1	3.98 µM [falling, full curve]	
Cc1c(C2(c3c(C)n(C)n(-c4ccccc4)c3=O)C(=O)Nc3ccc(F)cc32)c(=O)n(-c2ccccc2)n1C	29.1 µM [rising, single point]	32.6 µM [falling, partial curve, poor fit]
O=C(NC1CCN(Cc2ccc(Cl)cc2)CC1)c1cn(-c2ccccc2)nc1-c1cccnc1	23.1 µM [rising, partial curve]	
Cc1ncc([N+](=O)[O-])n1CCOC(=O)Nc1ccc([N+](=O)[O-])cc1	7.31 µM [rising, partial curve, poor fit]	
Cc1ccc(Cc2nnc3n(-c4ccccc4)nc(C(=O)c4ccccc4)n3c2=O)cc1	3.66 µM [falling, single point]	
COC(=O)c1cc2sccc2n1Cc1ccc(F)cc1	17.8 µM [rising, partial curve, poor fit]	
CC(OC(=O)C1CCN(S(=O)(=O)c2ccc(Cl)cc2)CC1)C(=O)N1CCc2ccccc21 (centres undefined)	6.51 µM [rising, single point]	
Cc1[nH]nc2c1C1(C(=O)Nc3ccc([N+](=O)[O-])cc31)C(C#N)=C(N)O2 (centres undefined)	2.91 µM [rising, partial curve, poor fit]	
O=C(CCn1nc(-c2ccc(Cl)cc2)ccc1=O)N1CCN(c2ccccn2)CC1	2.31 µM [rising, partial curve, poor fit]	
CN1CCN(c2nc(-c3cccs3)nc3ccccc23)CC1	13 µM [falling, partial curve, poor fit]	
Cn1cccc1C(=O)OCC(=O)Nc1sccc1C#N	13 µM [falling, partial curve]	
Cc1nc(NC(=O)c2cc3c(C)nn(-c4ccccc4)c3s2)sc1C(=O)Nc1ccccc1	8.2 µM [falling, partial curve, poor fit]	
CCC(C)NCCOCCOc1ccc(Cl)c2ccccc12 (centres undefined)	5.62 µM [falling, partial curve]	
O=C(NCc1ccco1)c1cc(-c2cccnc2)nc2ccccc12	13 µM [falling, partial curve, poor fit]	

Part of the list above, as comma-separated lines:
Compound,AC50 [1],AC50 [2]
Cc1c(C2(c3c(C)n(C)n(-c4ccccc4)c3=O)C(=O)Nc3ccc(F)cc32)c(=O)n(-c2ccccc2)n1C,"29.1 µM [rising, single point]","32.6 µM [falling, partial curve, poor fit]"
O=C(NC1CCN(Cc2ccc(Cl)cc2)CC1)c1cn(-c2ccccc2)nc1-c1cccnc1,"23.1 µM [rising, partial curve]",

The results go on.

Compound	AC50 [1]	AC50 [2]
O=C1C=CC(=C(c2ccc(O)cc2)c2ccc(O)cc2)C=C1		16.4 µM [falling, partial curve, poor fit]
Cc1cccc(C(=O)N2CCN(CCNC(=O)C(=O)Nc3ccc(F)cc3)CC2)c1	12.6 µM [falling, partial curve, poor fit]	
O=[N+]([O-])c1ccc2c(OCc3nnc(-c4ccccc4Br)o3)ncnc2c1	22.4 µM [falling, partial curve, poor fit]	
C/C(=N\NC(=O)c1cccc(Cl)c1)C1C(=O)c2ccccc2C1=O	5.8 µM [falling, partial curve, poor fit]	
Cc1ccc(C)c(NS(=O)(=O)c2ccc(-c3cnc(C4CC4)o3)cc2)c1	1 µM [rising, full curve]	1.78 µM [falling, full curve]
CC(C)Cn1c(SCC(=O)N2CCN(S(=O)(=O)c3ccccc3)CC2)nc2ccccc21	35.5 µM [falling, single point]	
COc1cccc2cc(C(=O)C3=C(O)C(=O)N(CCN4CCOCC4)C3c3ccc(C(C)(C)C)cc3)oc12 (centres undefined)	14.1 µM [falling, single point]	
Cc1cccc(N2CCN(C(=O)c3ccc4ncsc4c3)CC2)c1C	7.31 µM [falling, partial curve, poor fit]	
CCCCn1c(SCC(=O)NCCOC)nc2ccc(N3CCOCC3)cc2c1=O	35.5 µM [falling, partial curve, poor fit]	
CCOC(=O)Cn1c(=O)c2c(nc(N3CCCCC3)n2Cc2ccccc2)n(C)c1=O	22.4 µM [falling, single point]	
O=C(CSc1nnc(-c2cccc(F)c2)o1)Nc1nncs1	11.2 µM [falling, single point]	
CC(C)Oc1cccc(C(=O)NC2=NCCS2)c1	0.282 µM [rising, full curve, poor fit]	
Cc1cccc(CC(Cc2nc3ccccc3[nH]2)c2nc3ccccc3[nH]2)c1 (centres undefined)	29.1 µM [falling, single point]	
O=C(CSc1c2c(nc3ccc(Cl)cc13)CCCC2)NCc1ccco1	16.4 µM [falling, partial curve, poor fit]	
O=C(CSc1nnc(-c2ccc(O)cc2)o1)Nc1ccccc1	11.2 µM [falling, partial curve]	
Cc1ccc(C(=O)N/N=C/C=C/c2ccccc2)o1	5.62 µM [falling, partial curve]	
Cc1cc(C(=O)NCC(=O)OC(C(=O)Nc2cc(C(F)(F)F)ccc2Cl)c2ccccc2)ccc1[N+](=O)[O-] (centres undefined)	3.66 µM [rising, full curve, poor fit]	
O=C(NN=Cc1ccccc1Cl)c1ccc(-n2cnnn2)cc1	20.6 µM [falling, partial curve]	
Cn1c(SCC(=O)N2CCCc3ccccc32)nc2cccnc21	1.46 µM [falling, full curve, poor fit]	
CC1CCCCN1C(=O)c1cc(-c2ccc(Cl)c(Cl)c2)on1 (centres undefined)	0.794 µM [rising, partial curve, poor fit]	

Looked up by compound from the entries so far (two):
Compound	AC50 [1]	AC50 [2]
Cc1cccc(CC(Cc2nc3ccccc3[nH]2)c2nc3ccccc3[nH]2)c1 (centres undefined)	29.1 µM [falling, single point]	
CCn1c(=O)cc(SCC(=O)N2CCN(C3CCCCC3)CC2)c2ccccc21	7.31 µM [rising, partial curve, poor fit]	
